Publication PMC13001094, “Cargo Recognition of Nesprin‑2 by the Dynein Adapter Bicaudal D2 for a Nuclear Positioning Pathway That Is Important for Brain Development” (Biochemistry, 2026)
Results are given in words; binding and its absence hold for the method and conditions named. Sequences can lack the tags named with a protein.

Protein sequences, listed by entry. Tags and fused reporters are not part of them. Lines headed by an entry give the natural chain unless they say otherwise; changes in a name come on top. Chains listed by the source or under a name are the forms on record and can include a tag or linker.
GST-tagged Nesprin-2 (aa 6123–6421) triple mutant V6246A/L6253A/F6261A (Q6ZWQ0, form named): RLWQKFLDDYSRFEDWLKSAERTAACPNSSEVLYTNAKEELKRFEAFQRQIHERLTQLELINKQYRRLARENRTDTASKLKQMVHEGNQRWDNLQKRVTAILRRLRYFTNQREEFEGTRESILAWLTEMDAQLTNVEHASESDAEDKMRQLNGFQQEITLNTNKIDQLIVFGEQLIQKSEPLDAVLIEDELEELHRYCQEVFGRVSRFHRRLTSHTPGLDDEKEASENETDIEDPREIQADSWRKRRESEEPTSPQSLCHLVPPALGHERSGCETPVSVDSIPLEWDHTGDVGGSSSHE

Molecular target: GST-tagged Nesprin-2 (aa 6123–6421) triple mutant V6246A/L6253A/F6261A (mouse) (UniProt Q6ZWQ0)
Assay: pull-down; GST-tagged Nesprin-1/2 fragment held on glutathione column (not eluted), incubated 30 min with Ni-NTA-purified His6-BicD2-CTD diluted to 125 mM NaCl; washed twice; eluted with 10 mM glutathione, 50 mM Tris pH 8.0, 150 mM NaCl, 1 mM DTT; SDS-PAGE, Coomassie; band ratio normalised to WT = …; both purified

B1: His6-tagged human BicD2-CTD (aa 715–804) (domain or fragment, UniProt Q8TD16-2 715-804, looked up)
chain: YENEKAMVTETMMKLRNELKALKEDAATFSSLRAMFATRCDEYITQLDEMQRQLAAAEDEKKTLNSLLRMAIQQKLALTQRLELLELDHE
notes: pET28a vector; source: E. coli LOBSTR BL21(DE3)-RIL, purified (Ni-NTA); not shown: His6, N-terminal, kept
B1 was tested, and the binding was “no binding”.
